No constants are given. Whether binding was seen depends on the method and setting. Binding can be weak; no strength is given. Sequences can lack the tags named with a protein.
Molecular target: GST-N1ICD/N (GST-tagged N-terminal fragment of the Notch1 ICD) (mouse)
Experiment: pull-down; purified GST-N1ICD/N on glutathione-Sepharose 4B incubated overnight with purified GIT1-His; washed with buffer A + 50 mM NaCl; both purified

binding: binds
B1: GIT1-His (recombinant His-tagged GIT1) (protein, UniProt Q68FF6 1-770)
chain: MSRKGPRAEVCADCSAPDPGWASISRGVLVCDECCSVHRSLGRHISIVKHLRHSAWPPTLLQMVHTLASNGANSIWEHSLLDPAQVQSGRRKANPQDKVHPIKSEFIRAKYQMLAFVHKLPCRDDDGVTAKDLSKQLHSSVRTGNLETCLRLLSLGAQANFFHPEKGTTPLHVAAKAGQTLQAELLVVYGADPGSPDVNGRTPIDYARQAGHHELAERLVECQYELTDRLAFYLCGRKPDHKNGHYIIPQMADRSRQKCMSQSLDLSELAKAAKKKLQALSNRLFEELAMDVYDEVDRRENDAVWLATQNHSTLVTERSAVPFLPVNPEYSATRNQGRQKLARFNAREFATLIIDILSEAKRRQQGKSLSSPTDNLELSARSQSELDDQHDYDSVASDEDTDQEPLPSAGATRNNRARSMDSSDLSDGAVTLQEYLELKKALATSEAKVQQLMKVNSSLSDELRRLQREIHKLQAENLQLRQPPGPVPPPSLPSERAEHTLMGPGGSTHRRDRQAFSMYEPGSALKPFGGTPGDELATRLQPFHSTELEDDAIYSVHVPAGLYRIRKGVSASSVPFTPSSPLLSCSQEGSRHASKLSRHGSGADSDYENTQSGDPLLGLEGKRFLELSKEDELHPELESLDGDLDPGLPSTEDVILKTEQVTKNIQELLRAAQEFKHDSFVPCSEKIHLAVTEMASLFPKRPALEPVRSSLRLLNASAYRLQSECRKTVPPEPGAPVDFQLLTQQVIQCAYDIAKAAKQLVTITTREKKQ
